The assay has as its target T1, FLAG-ETO-W (wild type) (UniProt Q06455).
T1 sequence: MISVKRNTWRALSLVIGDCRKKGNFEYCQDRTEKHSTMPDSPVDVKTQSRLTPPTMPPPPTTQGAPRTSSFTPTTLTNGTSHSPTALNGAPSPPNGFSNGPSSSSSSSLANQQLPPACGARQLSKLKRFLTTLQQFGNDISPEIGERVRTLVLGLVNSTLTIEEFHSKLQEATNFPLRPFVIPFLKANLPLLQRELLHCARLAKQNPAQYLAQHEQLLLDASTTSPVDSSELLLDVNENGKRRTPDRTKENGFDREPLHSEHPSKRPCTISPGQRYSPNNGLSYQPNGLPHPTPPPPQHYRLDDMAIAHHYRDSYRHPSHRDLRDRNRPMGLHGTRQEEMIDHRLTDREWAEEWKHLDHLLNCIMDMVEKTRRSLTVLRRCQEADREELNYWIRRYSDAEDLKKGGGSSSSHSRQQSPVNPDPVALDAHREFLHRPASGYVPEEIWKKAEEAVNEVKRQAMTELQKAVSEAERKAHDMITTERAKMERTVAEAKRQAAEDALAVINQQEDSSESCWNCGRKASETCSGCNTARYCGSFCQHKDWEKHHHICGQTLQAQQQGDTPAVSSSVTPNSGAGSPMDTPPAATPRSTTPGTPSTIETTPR
Put plainly: co-IP; ETO immune complex probed for EZH1 (Supplementary Fig. 3a); cells and constructs not given.

The chains behind the UniProt entries cited, without tags or fusion partners.
UniProt Q92800: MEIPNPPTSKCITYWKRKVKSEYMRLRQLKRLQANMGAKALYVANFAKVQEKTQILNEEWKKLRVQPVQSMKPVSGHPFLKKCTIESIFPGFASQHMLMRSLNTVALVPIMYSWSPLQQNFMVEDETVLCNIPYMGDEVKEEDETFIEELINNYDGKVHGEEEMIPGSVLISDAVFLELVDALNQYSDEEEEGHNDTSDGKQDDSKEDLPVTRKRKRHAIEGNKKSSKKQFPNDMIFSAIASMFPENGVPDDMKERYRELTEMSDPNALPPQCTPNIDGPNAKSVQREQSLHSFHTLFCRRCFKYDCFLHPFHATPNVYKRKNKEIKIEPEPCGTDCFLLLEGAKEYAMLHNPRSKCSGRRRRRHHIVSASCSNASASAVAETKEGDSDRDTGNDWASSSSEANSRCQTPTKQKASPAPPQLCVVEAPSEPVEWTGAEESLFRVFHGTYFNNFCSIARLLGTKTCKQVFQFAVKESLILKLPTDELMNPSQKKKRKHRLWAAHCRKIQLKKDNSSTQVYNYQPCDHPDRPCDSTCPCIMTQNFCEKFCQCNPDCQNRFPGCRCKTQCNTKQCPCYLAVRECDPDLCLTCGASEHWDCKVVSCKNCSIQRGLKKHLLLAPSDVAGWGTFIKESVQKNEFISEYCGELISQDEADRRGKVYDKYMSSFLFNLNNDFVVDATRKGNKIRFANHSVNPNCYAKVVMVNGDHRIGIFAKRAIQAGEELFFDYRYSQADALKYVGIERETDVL

Results are given in words; binding and its absence hold for the method and conditions named. In cells and extracts the contact can be indirect. Some entries that bind do so weakly or less than the wild type. Sequences can lack the tags named with a protein.

Regarding “His-EZH1-W (wild type) (from UniProt Q92800 1-747)”, the binding result is “binds”.
